Source: article PMC12477566
These are yes or no findings as the source states them, for the method shown. Some results given as binding are weak or reduced against the parent protein; the word gives no strength.

Sequences of proteins named here, by UniProt entry; tags and fusion partners are left off.
UniProt P62308: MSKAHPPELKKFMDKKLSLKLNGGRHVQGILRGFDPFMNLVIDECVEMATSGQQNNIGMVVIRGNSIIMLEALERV
UniProt P62304: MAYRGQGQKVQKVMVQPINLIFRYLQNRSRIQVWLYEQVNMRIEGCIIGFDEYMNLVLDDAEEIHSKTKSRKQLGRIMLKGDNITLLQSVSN

Biological target: SmG-His (human) (UniProt P62308)
Assay: co-purification (co-expression, nickel affinity, heparin chromatography); subunits co-expressed in E. coli BL21 (DE3), one subunit His-tagged and captured on a HisTrap FF column (20 mM Tris pH 7.5, 0.5 or 1 M NaCl), then HiTrap Heparin column

Substance: SmE (from UniProt P62304 1-92)
- binding: binds
